Laboratory results taken from PubChem BioAssay AID493014 (National Center for Advancing Translational Sciences (NCATS), 2011).
Among all 340,000 compounds or so, about 170 (0.05%) were called active. The inconclusive results got no clear call from the source; some entries with a clear call stand among them for comparison. Calls follow the shape of the dose curve; as a rule, active = well fitted inhibition curve with a large enough effect in the signal ratio, with a control signal flat (not every such curve was filed as active); inconclusive = small, poorly fitted or top-dose-only effect, or effect the other way, or a change in a side signal; inactive = flat fitted curve, though single readings scatter; the % refers to the signal ratio. Potencies of inconclusive entries are doubtful fits and often do not repeat.

Test: qHTS Assay to Find Inhibitors of Chronic Active B-Cell Receptor Signaling;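 as to activity change, negative = inhibition: plate controls were basal doxycycline-induced cells for no effect and cells given 10 µM MG132 for full effect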
Settings: ABC-DLBCL IkBa-CBG/CBR reporter, luminescence ratio (green luciferase fused to IkBa over red control in TMD8 lymphoma cells), 4 h; activity change, negative = inhibition: at 46.1 µM (top of the series)
How it was run: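 Compounds up to 46 uM were incubated four hours with TMD8 cells whose green CBG68 luciferase is fused to IkappaBalpha; red CBR luminescence normalised the signal, and concentration-effect curves were fitted to fusion, red and ratio data.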
Potency is read from the fitted curve at half-maximal effect.

| Compound | activity change, negative = inhibition | Potency |
| --- | --- | --- |
| CC(=O)CCSc1ncnc2sc(-c3ccccc3)cc12 | inactive: 2.85% |  |
| CCN(CC)S(=O)(=O)c1ccc2c(c1)N(CC(=O)N1CCN(c3ccc(OC)cc3)CC1)C(=O)CO2 | inactive: 5.8% |  |
| CC(C)(C)c1nnc2sc(SCC(=O)N3CCc4ccccc43)nn2c1=O | inconclusive: -5.72% |  |
| Cc1cc(Br)ccc1NC(=O)CN(C)C(=O)COc1cccc2c1OC(C)(C)C2 |  | inconclusive: 13 µM [falling, partial curve] |
| CSc1nncc(/C(C)=N\Nc2cccc(C)c2)n1 | inactive: 18.3% |  |
| COc1ccc2c(c1)c(C(=O)CNc1nc(C)cs1)c(C)n2C | inactive: 2.04% |  |
| COc1ccc(N(C(C)C(=O)N/N=C/c2cccnc2)S(C)(=O)=O)cc1 (stereo not given) |  | inconclusive: 3.98 µM [falling, single point] |
| Cc1c(C(=O)O)c(O)cc2c1C(=O)c1c(O)c([C@@H]3O[C@H](CO)[C@@H](O)[C@H](O)[C@H]3O)c(O)c(O)c1C2=O | inactive: 17.1% |  |
| CN1CCN(c2ccc(NC(=O)c3ccccc3Br)cc2)CC1 |  | inconclusive: 29.1 µM [falling, single point] |
| Cc1cccc(C)c1NC(=O)COc1ccccc1C(=O)Nc1ccc(Br)cn1 | inconclusive: 4.23% |  |
| CCOC(=O)N1CCC(NC(=O)c2ccc3c(c2)N=C(CC)c2cc(C)ccc2S3)CC1 |  | inconclusive: 22.4 µM [falling, single point] |
| CCOC(=O)N1CCN(c2nc(-c3ccccc3)c3cc(C)ccc3n2)CC1 | inactive: 2.38% |  |
| CCOc1ccc(C(=O)Nc2cc(NC(=O)c3ccc(OCC)c(Cl)c3)cc(C(=O)O)c2)cc1Cl | inactive: 3.38% |  |
| Cn1c(C(=O)NC2CCCC2)cc2c(=O)n(C)c3ccccc3c21 | inconclusive: -1.45% |  |
| O=C(NCc1cccc(F)c1)c1ccc2nc(N3CCOCC3)sc2c1 | inactive: 21.8% |  |
| Cc1ccc(Cn2c(C)nc3c(c2=O)c2nc4ccccc4nc2n3Cc2ccco2)cc1 | inconclusive: -7.11% |  |
| CCOC(=O)c1cccc(NC(=O)c2cccs2)c1 | inconclusive: -11% |  |
| CCOc1ccc(Oc2ccccc2NC(=O)CSCC(=O)Nc2cc(C)on2)cc1 | inactive: -14.2% |  |
| NC(=O)NC(CC(=O)NCCc1ccccn1)c1ccccc1Cl (stereo not given) | inconclusive: -0.767% |  |
| Cc1cccc(NC(=O)CCC(=O)Nc2nnc(C(F)(F)F)s2)c1 | inconclusive: 13.1% |  |
| Cc1nn(-c2ccccc2)c(Cl)c1/C=N/NC(=O)c1ccccc1F | inconclusive: -24.4% |  |
| O=C(O)CCN1C(=O)/C(=C\c2cccc(OCC(=O)Nc3ccc(Cl)cc3)c2)SC1=S |  | inconclusive: 15.8 µM [falling, partial curve, poor fit] |
| Cn1nnc(NC(=S)NC(=O)c2cc(Cl)ccc2Cl)n1 |  | inconclusive: 14.1 µM [falling, single point] |
| Cc1ccc(NC(=O)c2sc3ncn(Cc4cccc(F)c4)c(=O)c3c2C)c(Br)c1 | inconclusive: 3.7% |  |
| CCCCc1ccc(NC(=S)NCC2CCCO2)cc1 (stereo not given) | inactive: -1.93% |  |
| CC(C)(C)C(=O)N1CCc2cc(-c3csc(N)n3)ccc21 | inconclusive: 10.7% |  |
| CC(C)c1ccc(S(=O)(=O)Nc2ccc(SC(F)F)cc2)cc1 | inconclusive: 12.2% |  |

| Compound | activity change, negative = inhibition | Potency |
| --- | --- | --- |
| CCOC(=O)c1ccc(NC(=O)c2nc[nH]c2C(=O)NCCCCNC(=O)c2[nH]cnc2C(=O)Nc2ccc(C(=O)OCC)cc2)cc1 | inactive: 4.44% |  |
| Cc1ccc2nc(NC3=NC(CC(=O)O)C(=O)N3)nc(C)c2c1 (stereo not given) | inconclusive: -1.17% |  |
| COc1ccc(/C=C2\COc3ccccc3C2=O)c(OC)c1 |  | inconclusive: 35.5 µM [falling, single point] |
| O=c1[nH]c2ccccc2cc1-c1nnn(-c2ccc(F)cc2)n1 | inconclusive: 224% |  |
| CCN(CC)S(=O)(=O)c1ccc(Oc2ccccc2)cc1 | inconclusive: 12.9% |  |
| COc1cc(OC)c(-c2nn3c(-c4ccncc4)nnc3s2)cc1OC | inconclusive: 1.72% |  |
| COc1ccc(CN(C)C(=O)c2ccc(NS(=O)(=O)c3ccc(F)cc3)cc2)c(OC)c1 |  | inconclusive: 35.5 µM [falling, single point] |
| CCOC(=O)c1ccc2c(c1)nc(SCC(=O)c1cc3ccccc3o1)n2CC | inconclusive: -9.73% |  |
| COCCOC1CCN(C(=O)c2cc(COc3ccc(F)cc3F)on2)CC1 | inconclusive: 8.34% |  |
| C#Cc1ccc([C@H]2C=C(C(=O)NC3CC3)O[C@@H](OCC)[C@@H]2CCCO)cc1 | inconclusive: 5.57% |  |
| COc1ccc2cc3c(N)nn(C(=O)c4cccc(F)c4)c3nc2c1 | inconclusive: 7.93% |  |
| COc1ccc(CN(C(=O)c2ccc(C)cc2)C2CCS(=O)(=O)C2)cc1 (stereo not given) | inactive: 2.29% |  |
| COc1ccc(-c2cn3cccnc3n2)cc1NC(=O)C1CC1 | inactive: -14.4% |  |
| CC1=C(C(=O)OCc2ccccc2)C(c2ccc3ccccc3c2)NC(=O)N1CCCCCC(=O)O (stereo not given) | inconclusive: -8.94% |  |
| COc1ccc2[nH]c3c(c2c1)CCn1c-3nc2ccccc2c1=O |  | inconclusive: 0.282 µM [rising, full curve] |
| COc1cc(C(=O)OCC(=O)Nc2ccc(SC(F)F)cc2)cc(OC)c1OC |  | inconclusive: 29.1 µM [falling, single point] |
| COc1ccc2c(c1)[n+](=O)c(C(C)=O)c(C)n2[O-] | inconclusive: 23% |  |
| COc1cc(NC(=O)c2noc(C)c2[N+](=O)[O-])c(OC)cc1Cl |  | inconclusive: 11.2 µM [falling, partial curve] |
| C=CCc1cccc(/C=N/NC(=O)C(C)Nc2cccc(C)c2)c1O (stereo not given) |  | inconclusive: 10 µM [falling, partial curve] |
| OC1CCCN(Cc2ccc3ccc4cccc5ccc2c3c45)C1 (stereo not given) |  | inconclusive: 14.1 µM [rising, partial curve, poor fit] |
| Cc1nc2ccccc2c(=O)n1NC(=O)Nc1ccccc1 | inconclusive: -4.24% |  |
| CC1=C(C#N)C(C)C2=C(CC(C)(C)CC2=O)N1 (stereo not given) | inactive: 12% |  |
| COc1ccccc1N/N=C(\C#N)C(=N)N1CCOCC1 | inconclusive: -17.3% |  |
| CC(C)(C)C1CCC(=O)N(CCOc2ccccc2)CC1 (stereo not given) |  | inconclusive: 31.6 µM [rising, partial curve, poor fit] |
| COc1cccc(C=Nc2cc(C)cc(C)c2)c1O | inactive: -2.18% |  |
| O=C(CN1CCC(O)(c2ccccc2F)CC1)NCCc1c[nH]c2ccccc12 |  | inconclusive: 35.5 µM [falling, partial curve, poor fit] |
| O=C1c2ccccc2C(=O)N1OCc1cccc(Cl)c1 | inconclusive: 13.9% |  |

| Compound | activity change, negative = inhibition | Potency |
| --- | --- | --- |
| COc1cccc(-c2nnc(NC(=O)C3CCCCC3)o2)c1 | inconclusive: 12.3% |  |
| O=C(OCCNc1nc(-c2ccccc2)nc2ccccc12)c1cccnc1 | inconclusive: 0.171% |  |
| O=C(CCCN1C(=O)c2ccccc2C1=O)NCc1ccc(F)cc1 | inconclusive: 19.3% |  |
| Nc1nc(COC(=O)c2ccc3c(c2)OCCO3)nc(Nc2ccccc2)n1 | inactive: -6.93% |  |
| Cn1c(=O)n(C)c2cc([N+](=O)[O-])c(N3CCN(C(=O)c4ccccc4Cl)CC3)cc21 | inactive: -13.6% |  |
| C/C(=N/NC(=O)Cc1cccc2ccccc12)c1cccs1 | inactive: 5.31% |  |
| O=C(NCCc1c[nH]c2ccccc12)c1cnc2sccn2c1=O | inconclusive: -7.43% |  |
| COc1ccc(/C=N/NC(=O)c2ccn[nH]2)cc1Cn1nc(C)c([N+](=O)[O-])c1C |  | inconclusive: 15.8 µM [falling, partial curve, poor fit] |
| CCn1nc(NC(=O)C2CCCO2)c2cc3cc(C)ccc3nc21 (stereo not given) | inconclusive: 8.88% |  |
| Cc1nn2c(-c3ccccc3)ccnc2c1-c1ccccc1 | inconclusive: -2.25% |  |
| COc1ccc(CCC(C)NCc2cc(OC)cc(OC)c2)cc1 (stereo not given) | inconclusive: 0.0789% |  |
| O=C(NCCc1ccccc1)C1CCCN(C(=O)Nc2ccc(F)cc2)C1 (stereo not given) | inconclusive: 6.05% |  |
| N=c1oc2cc(O)ccc2cc1C(=O)Nc1nc2ccccc2s1 |  | inconclusive: 0.366 µM [rising, full curve, poor fit] |
| Cc1nc2sccn2c(=O)c1CCN1CCC(=C(c2ccccc2)c2ccc(F)cc2)CC1 | inconclusive: -4.2% |  |
| CC1CCCCN1C(=O)NC12CC3CC(CC(C3)C1)C2 (stereo not given) | inconclusive: 27.6% |  |
| CC(NC(=O)COC(=O)CNC(=O)c1ccccc1Cl)C1CC2CCC1C2 (stereo not given) | inconclusive: 16.4% |  |
| Cn1c(N)c(C(=O)COC(=O)CCCc2c[nH]c3ccccc23)c(=O)n(C)c1=O | inconclusive: 6% |  |
| Cc1c(C(=O)OC2CCC(C)CC2)[nH]c2c1C(=O)CCC2 (stereo not given) | inconclusive: -2.33% |  |
| CCOc1c(Cl)cc(/C=N/NC(N)=S)cc1OC | inactive: -0.195% |  |
| N#CCC(=O)Nc1ccc(C(=O)OCC(=O)N2CCCC2=O)cc1 |  | inconclusive: 23.1 µM [falling, single point] |
| COc1ccc(-c2oc3ccccc3c2C(=O)OCc2ccccc2)cc1 |  | inconclusive: 14.1 µM [rising, partial curve, poor fit] |
| CC1CCCCN1CCNC(=O)c1ccc2c(=O)n(Cc3ccc(Cl)cc3)c(=S)[nH]c2c1 (stereo not given) |  | inconclusive: 22.4 µM [falling, single point] |
| COc1ccc(S(=O)(=O)N(CCc2ccccc2)CC(=O)NC(C)C)cc1 | inconclusive: 21.4% |  |
| Clc1ccc(-c2nc3nc4ccccc4nc3n2Cc2ccco2)cc1 |  | inconclusive: 6.51 µM [falling, single point] |
| O=C(COc1cc2oc(=O)cc(-c3ccccc3)c2cc1Cl)NCC1CCC(C(=O)O)CC1 (stereo not given) | inconclusive: -0.301% |  |
| COc1ccc(C(=O)/C=C/c2ccc(OC)c(Cn3nnc4ccccc43)c2)cc1 |  | inconclusive: 23.1 µM [cytotoxic, partial curve] |

In the list so far, 3 have a tert-butyl group:

| Compound | activity change, negative = inhibition | Potency |
| --- | --- | --- |
| CC(C)(C)c1nnc2sc(SCC(=O)N3CCc4ccccc43)nn2c1=O | inconclusive: -5.72% |  |
| CC(C)(C)C(=O)N1CCc2cc(-c3csc(N)n3)ccc21 | inconclusive: 10.7% |  |
| CC(C)(C)C1CCC(=O)N(CCOc2ccccc2)CC1 (stereo not given) |  | inconclusive: 31.6 µM [rising, partial curve, poor fit] |

Reprinted at random: two records from the list

| Compound | activity change, negative = inhibition | Potency |
| --- | --- | --- |
| Cc1nn2c(-c3ccccc3)ccnc2c1-c1ccccc1 | inconclusive: -2.25% |  |
| CCn1nc(NC(=O)C2CCCO2)c2cc3cc(C)ccc3nc21 (stereo not given) | inconclusive: 8.88% |  |
